Inconclusive results, whose numbers are uncertain, are shown with a selection of clear calls. A potency beside an inconclusive call is a rough fit, not a confirmed value. Calls of active or inactive are those of the source. Calls come from the whole dose curve; as a rule, active = well fitted curve in the direction sought with a large enough effect; inconclusive = small, poorly fitted or top-dose-only effect, or another doubt; inactive = no such curve, though single readings can be large; an effect the other way counts as inactive or inconclusive.
What was measured:
[1] = qHTS of pediatric cancer cell lines to identify multiple opportunities for drug repurposing: Confirmatory screen for TC32 cells (AID 1347118); conditions: TC32 Ewing sarcoma cells viability qHTS; series mostly up to 45.9 µM;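 note: cells exposed to compound for 48 h before the read; nearly all actives have a fitted effect of over 65% in size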
How it was run: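 Luminescent ATP read-out (CellTiter-Glo) of metabolically active TC32 cells after 48 h exposure. Concentration-response curves came from 11-point (MIPE, 0.78 nM–46 µM) or 8-point (NPC, 0.59 nM–46 µM) primary titrations; follow-up used 11 points.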

[2] = qHTS of pediatric cancer cell lines to identify multiple opportunities for drug repurposing: Confirmatory screen for RD cells (AID 1347124); conditions: RD rhabdomyosarcoma cell viability; activity change, negative = cytotoxic: at 45.9 µM (top of the series);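 note: cells exposed to compound for 48 h before viability readout; nearly all actives have a fitted effect of over 65% in size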
How it was run: (§1)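 Viability after 48 h compound treatment at 37C, 500-1,000 cells/well, read as ATP luminescence with CellTiter-Glo. Primary screens used 11-point (MIPE, 0.78 nM-46 µM) or 8-point (NPC, 0.59 nM-46 µM) final concentrations; follow-up screens used 11-point dilutions.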

[3] = qHTS of pediatric cancer cell lines to identify multiple opportunities for drug repurposing: Confirmatory screen for Rh30 cells (AID 1347126); conditions: Rh30 rhabdomyosarcoma cell viability; series mostly up to 45.9 µM; note: nearly all actives have a fitted effect of over 55% in size
How it was run: as §1

[4] = qHTS of pediatric cancer cell lines to identify multiple opportunities for drug repurposing: Confirmatory screen for control Hh wild type fibroblast cells (AID 1347121); conditions: viability qHTS; series mostly up to 45.9 µM; note: nearly all actives have a fitted effect of over 70% in size
How it was run: as §1

[5] = qHTS of pediatric cancer cell lines to identify multiple opportunities for drug repurposing: Confirmatory screen for Saos-2 cells (AID 1347127); conditions: Saos-2 osteosarcoma cell viability; series mostly up to 45.9 µM; note: nearly all actives have a fitted effect of over 60% in size
How it was run: as §1

[6] = qHTS of pediatric cancer cell lines to identify multiple opportunities for drug repurposing: Confirmatory screen for MG 63 (6-TG R) cells (AID 1347119); conditions: MG-63 (6-TG resistant) osteosarcoma viability; series mostly up to 45.9 µM; note: nearly all actives have a fitted effect of over 55% in size
How it was run: as §1

[7] = qHTS of pediatric cancer cell lines to identify multiple opportunities for drug repurposing: Confirmatory screen for Rh18 cells (AID 1347125); conditions: Rh18 rhabdomyosarcoma cells, viability; activity change, negative = cytotoxic: at 45.9 µM (top of the series); note: nearly all actives have a fitted effect of over 55% in size
How it was run: as §1
Potency is the fitted concentration of half-maximal effect.

Compound	Potency [1]	Potency [2]	Potency [3]	Potency [4]	Potency [5]	Potency [6]	Potency [7]
COc1cc2c(Nc3ccc(Br)cc3F)ncnc2cc1OCC1CCN(C)CC1	inactive	inconclusive: 2.9 nM [rising, full curve]	inconclusive: 18500 nM [cytotoxic, partial curve, poor fit]				
C[C@@]12C(=O)OC(=O)[C@]1(C)C1CCC2O1	active: 3290 nM	active: 6570 nM		inconclusive: 928 nM [cytotoxic, full curve]	active: 2930 nM		
Cc1c(C)c2c(c(C)c1O)CCC(C)(COc1ccc(CC3SC(=O)NC3=O)cc1)O2 (stereo not given)	inactive					inconclusive: 36900 nM [cytotoxic, single point]	inconclusive: 0.9 nM
CN[C@H]1CCc2cc(OC)c(OC)c(OC)c2-c2ccc(OC)c(=O)cc21	inconclusive: 104 nM [cytotoxic, full curve, poor fit]		inactive		inconclusive: 82.7 nM [cytotoxic, full curve, poor fit]	inconclusive: 117 nM [cytotoxic, full curve, poor fit]	
CCc1cnn2c(NCc3ccc[n+]([O-])c3)cc(N3CCCC[C@@H]3CCO)nc12	inconclusive: 329 nM [cytotoxic, full curve, poor fit]	inactive	inconclusive: 10400 nM [cytotoxic, single point]		inactive	inconclusive: 11700 nM [cytotoxic, single point]	inconclusive: 11700 nM [cytotoxic, single point]

Reference: PubChem BioAssay (NCATS)
